Experimental findings from article PMC10803359 are described below.

These are yes or no findings as the source states them, for the method shown. A result given as binding can be weak or reduced; the word gives no strength. Sequences can lack the tags named with a protein. For part of these data: In cells and extracts the contact can be indirect.

In experiment [1] the target is SWINGER (SWN) ΔSET, yeast two-hybrid fusion (Arabidopsis thaliana). Kind of experiment: two-hybrid; GAL4 yeast two-hybrid in S. cerevisiae AH109; growth on SD-L-W-H in serial dilutions, 3 to 4 days at 28 °C; empty bait and prey vectors as negative controls.
Experiment [2] has as its target PWO1, yeast two-hybrid fusion (Arabidopsis thaliana). The experiment is described as above.
The target of experiment [3] is SWINGER (SWN) ΔSET, fluorescent-protein fusion expressed in N. benthamiana (Arabidopsis thaliana). Kind of experiment: co-IP; extracts of N. benthamiana leaves transiently co-expressing GFP- and mCherry-tagged proteins; IP with anti-mCherry and protein A agarose, 4 h at 4 °C, 150 mM NaCl, 1% Triton, Tris-HCl pH 8; blot with anti-GFP.

B1: UBP5, yeast two-hybrid fusion (enzyme, UniProt O22207 1-924)
chain: MAEVSMGSSSSSTDLSPEEERVFIRDIAIAAEANSKEGDTFYLITQRWWQEWIEYVNQDQPCNTNDGSSLSEHCDSPGSSTLKKPSRIDNSDLIYDSSLEDPSNTSEIIETLQEGRDYVLLPQEVWNQLRSWYGGGPTLARRVISSGLSQTELAVEVYPLRLQLLLMPKSDHSAIRISKKETIRELHRRACEIFDLDSEHVRIWDYYGHQKYSLMNDLDKTLDDANLQMDQDILVEVLDINGTLSSAHIQSAQENGLVDGDSTSILIEPSKSSLAAAGGFSSSRNAFRTGSVEVSQSFDNTYSSTGVTTRGSTAGLTGLLNLGNTCFMNSAIQCLVHTPEFASYFQEDYHQEINWQNPLGMVGELALAFGDLLRKLWAPGRTPIAPRPFKAKLARFAPQFSGYNQHDSQELLAFLLDGLHEDLNRVKHKPYINSRDADGRPDEEVADEFWKNHIARNDSIIVDVCQGQYKSTLVCPICNKVSVTFDPFMYLSLPLQFNTTRAITVTVFSCDKTALPSTITVNVSKQGRCRDLIQALTNACSLKQSEELKLAEIRNNFIHRLFEDPLIPLSSIKDDDHLAAYKLSKSSENTTLLRLVLRRRDQKAGERESTVQLKPCGTPLLSSASCGDALTKGKIHCLVQNMLSPFRREESVGKKGNSDSSIPERRSARFNNTEEEDKVGGLKKAKKSNSSDLGASKLSLQLIDEDNKTINLPDNEAEAMKLPSSATVTIYLDWTPELSGMYDITCLESLPEVLKYGPTTKKARSEPLSLYACLEAFLREEPLVPDEMWFCPQCNERRQASKKLDLWRLPEVLVIHLKRFSYSRSMKHKLETFVNFPIHDLDLTKYVANKNLSQPQLYELYALTNHYGGMGSGHYTAHIKLLDDSRWYNFDDSHISHINEDDVKSGAAYVLFYRRKSDAGGKMT
For the molecule B1, the binding result in experiment [1] and in experiment [2] was “binds” each time.

B2: UBIQUITIN SPECIFIC PROTEASE 5 (UBP5), fluorescent-protein fusion expressed in N. benthamiana (enzyme, UniProt O22207 1-924)
chain: B1 chain
Regarding B2, the binding result in experiment [3] was “binds”.
